# Measurements reported in PubChem BioAssay AID1259308 (NCATS, 2017).
# Purpose: 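Genes whose loss raises luciferase production in HEK293 cells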 (primary screen)
# System: human HEK293 embryonic kidney cells stably expressing firefly luciferase (HEK-CMV-Luc2-Hygro)
# Reagent: single siRNA against human genes, 0.8 pmol siRNA per well
# Time to read-out: 72 h
# Measurement: 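Reporter luminescence and viable-cell signal on separate replicate plates, given as percent of non-targeting control and median/MAD z-scores, plus per-cell luciferase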
# Scale: total luciferase, z-score and total luciferase, % of control: higher = more reporter protein produced; luciferase per cell, z-score: higher = more reporter output per viable cell; viable cells, % of control: higher = more viable cells
# Hit rule: 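Active when the median/MAD z-score for overall luciferase is greater than 3; a gene was taken forward for validation with new siRNAs if at least two of its three siRNAs passed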
# Meaning of the calls: active = raised luciferase; inactive = no rise
# The deposit covers about 59,000 reagents; shown is a part drawn at random. Of all reagents, about 1,510 (2.6%) were called active. 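Calls use total luciferase alone and ignore viability, so some active siRNAs may act by altering cell number.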 Unmarked entries are inactive.
Target gene,PubChem SID,"total luciferase, z-score","total luciferase, % of control","luciferase per cell, z-score","viable cells, % of control"
VASN,SID160755127,-0.441,73.1,0.744,67.2
VASN,SID160755128,-1.39,54.2,-1.62,92.9
VASN,SID160755129,-0.303,75.9,-0.377,93.6
TACSTD2,SID160776815,1.8,118,1.33,92.7
TACSTD2,SID160776816,-0.146,79,0.125,85.4
TACSTD2,SID160776817,1.92,120,0.965,104
GJA3,SID160770948,0.0563,83,0.236,87.2
GJA3,SID160770956,-0.903,63.9,-0.471,80.9
GJA3,SID160770966,-0.342,75.1,-0.524,96.3
EPPK1,SID160751161,-1.41,53.8,-1.32,85.2
EPPK1,SID160751162,0.883,99.4,0.312,102
EPPK1,SID160751163,-2.08,40.6,-1.39,65.4
FMR1NB,SID160759665,0.516,92.1,0.285,95.5
FMR1NB,SID160759666,-2.91,23.9,-4.09,78.6
FMR1NB,SID160759667,2.37,129,2.53,74.1
AKIP1,SID160745131,-0.373,74.5,-0.447,93.6
AKIP1,SID160745132,-0.631,69.3,-0.346,84.9
AKIP1,SID160745134,0.35,88.8,0.57,85.4
KCNK12,SID160745118,-1.57,50.6,-1.42,82.2
KCNK12,SID160745119,0.431,90.5,0.0586,99.5
KCNK12,SID160745120,-1.8,46,-1.98,86.7
PRPS1,SID160715078,-0.747,67,-0.588,87.4
PRPS1,SID160715079,-0.811,65.8,-1.32,104
PRPS1,SID160731557,0.165,85.2,-0.115,98.1
TRIM25,SID160719194,-0.192,78.1,0.219,82.4
TRIM25,SID160719195,-0.16,78.7,0.456,78
TRIM25,SID160719196,0.714,96.1,0.331,98.4
DMBT1,SID160754888,0.355,88.9,0.279,92.3
DMBT1,SID160754898,-0.858,64.8,-0.447,81.5
DMBT1,SID160754909,0.00919,82.1,0.607,78.2
HES4,SID160724496,6.48 (active),211,3.21,101
HES4,SID160724497,-1.37,54.5,-1.04,80.2
HES4,SID160731613,-0.404,73.8,-0.502,94.2
SPG21,SID160740615,1.57,113,0.326,116
SPG21,SID160740616,0.189,85.7,0.33,87.8
SPG21,SID160740617,-0.639,69.2,-0.843,96.5
B4GALNT2,SID160756256,-1.35,55.1,-1.23,85
B4GALNT2,SID160756257,0.657,95,0.28,98.6
B4GALNT2,SID160756258,-0.429,73.3,-0.643,97.1
CABLES1,SID160754099,0.0307,82.5,0.0135,91.9
CABLES1,SID160754100,1.7,116,0.953,101
CABLES1,SID160754101,-0.904,63.9,-1.7,112
OR2M2,SID160733270,1.84,118,1.31,93.8
OR2M2,SID160766662,2.61,134,2.42,79
OR2M2,SID160766663,0.881,99.4,1.12,82.7
GNPNAT1,SID160748050,0.206,86,-0.0308,96.9
GNPNAT1,SID160748051,-0.353,74.9,-0.462,94.5
GNPNAT1,SID160748052,-0.236,77.2,0.463,76.4
SLF1,SID160751959,-0.439,73.2,-0.746,99.5
SLF1,SID160751960,-0.16,78.7,-0.437,98.7
SLF1,SID160751961,-0.662,68.7,-0.624,90.5
CRB1,SID160736249,-0.0155,81.6,-0.442,102
CRB1,SID160736250,-0.319,75.5,-0.734,102
CRB1,SID160736251,0.979,101,0.499,99.3
CALN1,SID160751329,0.885,99.5,0.679,93
CALN1,SID160751330,0.762,97.1,0.401,97.6
CALN1,SID160751331,2.27,127,2.12,81.3
DPYSL4,SID160728759,-0.936,63.3,-0.822,87.8
DPYSL4,SID160728760,-0.189,78.1,-0.0306,88
DPYSL4,SID160728761,0.0936,83.7,1.54,62.4
TRPM5,SID160739207,1.21,106,1.01,90.8
TRPM5,SID160739208,0.9,99.8,1.27,79.8
TRPM5,SID160739209,-0.679,68.4,-0.328,83.3
PAXIP1,SID160734221,-0.332,75.3,-0.799,104
PAXIP1,SID160734231,-2.33,35.6,-3.32,95.4
PAXIP1,SID160734241,1.27,107,0.833,96.2
CHD6,SID160751845,0.084,83.6,0.00341,93.3
CHD6,SID160751846,-0.0206,81.5,-1.02,119
CHD6,SID160751847,-0.336,75.2,-0.27,90.2
CEBPB,SID160741616,1.8,118,1.06,99.6
CEBPB,SID160741627,0.107,84,-0.431,105
CEBPB,SID160741638,1.06,103,0.112,112
GUCY1A1,SID160774736,-0.726,67.4,-1.03,98.9
GUCY1A1,SID160774737,0.784,97.5,0.501,95.5
GUCY1A1,SID160774738,-0.232,77.3,-0.121,89.2
